According to the supplement of paper PMC3334620:
The full ranking holds about 33,000 sequences; the median of “E-score (-0.5 to 0.5)” is about -8e-05, and the highest 2% start at about 0.23. The list shows a part of the results.

Biological target: T1, Nrg2 (UniProt P38082)
T1 sequence: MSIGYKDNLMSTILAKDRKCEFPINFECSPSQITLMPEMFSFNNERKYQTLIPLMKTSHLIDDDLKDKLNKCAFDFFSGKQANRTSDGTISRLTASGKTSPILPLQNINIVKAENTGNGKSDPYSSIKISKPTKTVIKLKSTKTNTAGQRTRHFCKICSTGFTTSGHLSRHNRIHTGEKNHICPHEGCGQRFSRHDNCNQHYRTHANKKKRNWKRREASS
Test: PBM E-score (8-mer binding enrichment) (E-score (-0.5 to 0.5)); higher = stronger / more preferred TF binding
Conditions: protein concentration: 100 nM; construct: GST-full length
How it was run: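 Yeast transcription factors carrying a GST tag, as full-length proteins or DNA-binding domains, were produced by PURExpress in vitro transcription/translation. About 100-200 nM protein was applied to universal all-10-mer Agilent arrays, double-stranded by primer extension on fresh or once-stripped slides. Bound protein was detected with fluorescent anti-GST, and scans were normalised with masliner. The Universal PBM Analysis Suite gave each ungapped eight-base word, pooled with its reverse complement, an E-score, a modified Wilcoxon-Mann-Whitney statistic.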

Sequence	PBM E-score
AAGTCGGC	-0.0424
AATTTACG	0.159
ACCAGTCG	-0.149
ATCGTGTC	0.00655
CAGAGAAA	0.138
GCTCACAC	-0.0643
AGGCGAAT	0.0758
GGTACGAA	0.11
ATGCTGGG	-0.0566
GAGATGCA	0.0438
CGCTTGAA	0.263
ATACATGG	0.108
CAATCCCA	0.0276
ATTAATGA	0.235
ACGTGAGG	-0.00632
ATCAGAGG	-0.112
AAACAATC	0.0887
AGGGGCGC	0.15
AAACTTTC	0.0328
AAGGAGCC	-0.118
ACTTATAT	0.227
ATCTTTAA	0.0308
ACAGGCGT	-0.0962
CTTTGATA	0.0462
AGGAGGAG	-0.267

Sequence	PBM E-score
CGGTGTTC	-0.0806
AAAGCCCC	-0.053
CTTGTCTC	-0.00155
CAAGATTA	0.029
CAAAAGAA	0.218
CTCTGTGC	-0.0288
CCATGCTC	-0.297
CAAAGCAG	0.0557
CACGAGAA	-0.0551
CCATCGGA	-0.097
CTCGTGAA	-0.0827
GCGGTTAA	-0.0634
GACCTAGC	-0.0292
GTGAACGA	-0.00481
GCTTTTAC	-0.16
CCGGCACA	-0.0589
ATATAAAA	0.0793
AGAGGCCG	-0.303
ACGGTTTA	-0.141
ACTTATCT	0.0669
ATTGATGC	0.123
CGATCGAG	0.0448
GCATAACA	0.0928
GCATGGAC	0.0746
CTGAATCA	0.0531

Sequence	PBM E-score
CAGACCGG	-0.11
CGAGACAC	-0.0459
AGGCCAAC	-0.196
GTTGTTTA	0.118
ATCTTGGA	-0.0153
ACTCTAGA	-0.0152
CATGCCCA	-0.262
ACGAAAGG	0.0599
CCCTAATC	0.0708
ACACTCAT	0.0544
ACGAAGTC	0.0773
GCGGCCGC	-0.153
AGCGTGTG	-0.0364
CAACGACG	-0.0457
ATAAACGA	0.151
CGCATGCG	0.0387
ACGGTCGA	-0.06
CGTGGACA	-0.0634
AACCGTTG	0.0901
ACAGGGCC	0.295
CTACAGCC	-0.132
CTAGGAAC	-0.0227
AAAACTGC	-0.102
CTGAATGA	0.188
AAAGCCGT	-0.124

Looked up above.
Value for CCCTAATC under PBM E-score: 0.0708
Value for GTTGTTTA under PBM E-score: 0.118
Value for ATAAACGA under PBM E-score: 0.151
Value for AGCGTGTG under PBM E-score: -0.0364
Value for CGTGGACA under PBM E-score: -0.0634

(list continues)

Sequence	PBM E-score
ATCTTTTA	0.0288
GCACGGGC	-0.0455
ACGCGTCT	0.0389
GACGTCAA	0.0666
AGCCCCTG	0.0357
ATAGAAGG	-0.0977
AACCCTAA	0.123
GCAAGTGC	-0.141
CTGCGCTC	-0.146
AGTGCCCG	0.114
AACGTAAA	0.128
ATAGGTCC	0.172
ATGATGTG	0.0984
CGTCAGAC	0.0774
AGATTTTC	0.0765
CACGGCAG	0.0482
AACGGCGC	-0.0257
CGTCCGAA	-0.0969
GTCTTTTA	-0.195
CTGCCATC	0.0751
AAGTGGTC	0.0333
GAGGTACC	0.0253
ACCCGCTA	0.0219
CGACACCC	0.072
ATTCTGTA	-0.0512

Sequence	PBM E-score
AGAAGTAA	0.152
AAATTATG	0.106
CATGTCCC	-0.0199
CGCATCTA	0.146
CCGTTAAG	-0.0885
TGCAATAA	0.207
GATCAGCC	-0.275
ATTGACGG	-0.00219
CGGTAGAA	-0.275
AACGTGAC	-0.0263
CGGATTGA	0.156
AGTTTGGG	0.0374
AGCGGATC	0.0826
AGCAAAAC	0.0481
AATGATGC	0.044
AATCAGTG	0.0261
ACCACCAG	0.0201
GCCCTTAC	-0.147
CTATAAGA	-0.0182
GCGGGCAC	-0.0529
ACTCGAGA	0.0451
CAGGGGCC	0.191
TCCGTCGA	0.123
GTCATCGA	-0.028
CTCCTCAG	-0.192

Sequence	PBM E-score
CTTCCAGC	-0.285
TCGAAACA	0.232
GGCGCGCA	0.168
ATGCTTTA	-0.178
TCCTGCGA	0.0145
CGGAGGTA	-0.103
AGCTTTTC	-0.141
AGAGGTCG	-0.00188
CTCGAGTA	0.172
AGGTTACG	-0.0385
CTTGTAAC	-0.0137
ACATTAGT	0.0206
GTAAGCAA	0.0284
CCGCAGTA	-0.0214
AATACTTA	-0.0116
TACGAGGA	-0.094
TAATTCGA	0.0602
ATACTTAA	0.215
AATGCAAC	0.127
CTTTTGGC	0.00456
ATTTCAGC	-0.038
CTGACATC	0.106
CAGTTTAA	-0.0382
ACCTGGGA	0.01
GATTCATA	0.176

Sequence	PBM E-score
CAAAGAGG	0.0966
CAATAGCC	-0.0879
CTAGGAGC	-0.0101
AATCGACT	-0.0229
CCTAGCAA	-0.0644
ACGTGACT	-0.171
TGGTTCAA	0.103
CCTCGCTC	0.105
GACACGAC	0.0549
AATGACTA	-0.0979
AAGATGAT	0.00994
CGACCGCA	0.101
AGCTGTAG	0.132
ATGTGGGG	-0.0299
GGTAGAAC	-0.102
GCCCCCAA	-0.331
ACATTGGT	-0.0379
GAGGTGGC	-0.0836
ACTATAAG	-0.126
TGGATTAA	-0.0443
GGCTTGCA	0.0861
CGCTGACA	0.105
AGCCGAAA	-0.0476
CTCCCGTA	-0.203
GTGCTAAC	-0.0203

Sequence	PBM E-score
AATTTACC	-0.0279
CTCCTATA	-0.335
ATCATATA	0.123
CCACAATC	-0.0997
AGTCCGGC	-0.0322
GAACTGAA	0.108
TAAGGACA	-0.0222
GCACTTAC	-0.166
CGTGCCTC	-0.0432
CAGGAAGA	-0.0595
ACGTCTGA	-0.157
ACATAGAG	-0.0997
ACGGACCA	0.179
CTGACACC	-0.15
ACAATGCT	-0.0767
AGTCTACG	-0.204
CAGGGTAG	0.303
AGCAACAC	0.17
GGTCCACC	-0.0817
GTCCAGAC	-0.175
AGCTATCA	0.121
CAGTGACC	0.0395
CCTGCAAA	0.00862
GCTACTGA	0.0376
GAAAGAAA	0.281

Reformatted with each value named: part of the list above.
ACGTCTGA
  PBM E-score: -0.157
ACATAGAG
  PBM E-score: -0.0997
ACGGACCA
  PBM E-score: 0.179
CTGACACC
  PBM E-score: -0.15

Continuation.

Sequence	PBM E-score
GTAGGGTA	0.0976
AACGGTAA	-0.148
ACTCCCGA	-0.229
TACAAGAA	0.051
GTAAGCAC	-0.187
CTAGTCAC	-0.122
CCGGGCTA	-0.199
GTTGACAA	0.0873
CTGCCCAA	0.0866
CACAGGTG	-0.124
ATACGTGC	-0.00522
AACTACCC	0.0912
AAGGTAGA	-0.107
AGATTTAA	0.0464
AATCGTAG	0.206
CGTCCCAC	-0.0209
CTAAGGCA	-0.112
ACACGCGC	-0.0162
CTCGAATA	-0.116
GAGTTGCA	0.136
ATGCACCG	-0.048
AAAGAATT	0.0546
CCGCACAA	-0.00442
GATGGGCA	0.109
TAATGCTA	0.157

Sequence	PBM E-score
ACAGTCCA	0.0427
CAAGTCAA	0.0401
ACAAGAGG	-0.043
GGTTCCTA	-0.0986
CCGCGGCA	0.121
AGCTTGAG	-0.139
CAACCATG	0.0391
GTGGCTCA	-0.159
ATCTCCAG	-0.0261
CGTATGAG	-0.116
ATCTGTGA	-0.0301
AAAGCACC	-0.0744
TAGTAGCA	0.114
AAAATCTG	0.146
CGCTTCCC	-0.108
CGTAAGGA	-0.00216
AGTTCCAG	-0.155
GTGACGTA	-0.0309
AGAGTTCG	0.147
CCTCTCCC	-0.127
ATCGATGA	-0.00663
AGTGCCGC	-0.0723
CCAGTCGC	-0.0486
ACCTACGA	-0.0773
CACTGATA	-0.015

Sequence	PBM E-score
CCTCAGAA	-0.143
CAGGCCTA	-0.0342
GATGGGAA	-0.14
CCTGAAGG	-0.0247
GCACAAAC	0.0641
CCCCAACA	-0.0901
AGGTTAAG	-0.0479
CGCCCCGA	0.172
CTAGCGAA	-0.106
AGATGAAA	0.192
CGGCCTAA	-0.0403
GGCGAGCC	-0.0861
CGGTAACG	-0.269
CAGACGCA	0.0813
CATCGATC	0.0165
CGGTGGTC	-0.0693
AGCCAGGA	-0.0522
ACATTCAT	-0.0109
ACCAGCAG	-0.0904
CACTCTAC	0.126
TCAAACCA	0.134
ATCGGGCA	-0.0438
TGCAACAA	0.00649
GGCTCACC	-0.235
GTATTAGA	0.121

Sequence	PBM E-score
GCGGAGCC	0.0843
ATAAGATG	0.163
CATATGTC	-0.163
ATACCACC	0.151
CATGCTAG	-0.00401
GGTTCTAC	-0.112
GTCGACTA	0.221
CTTGCTCC	-0.0721
CTCTATCC	-0.18
GCTCAAAA	0.0307
AATTCAAG	0.0675
ACTTGGGA	-0.317
TTATTAAA	0.196
CTCATGCA	0.031
GGCATGCC	0.156
GATTGATA	0.181
AGATTCGA	0.0269
AAAGACCT	-0.156
AGTAGCCA	-0.278
ATTTTCTC	0.106
CTGATAGA	-0.122
CATGCTGC	-0.0727
AAGGAAAG	-0.137
CCCTTATA	0.148
AACGGGGC	0.0899

Sequence	PBM E-score
CTCAAGTC	-0.145
AAACGCCA	0.203
ATAGGACC	0.0195
AATATGGT	0.197
AACGTCAA	-0.0866
CTTGTGAA	0.0572
AAGGTGCA	-0.0255
CGTAGTCC	-0.192
AATGTGGA	0.0414
CATTCAGG	-0.0109
ACAGGCAA	0.053
GACGGGTA	-0.182
CATAGGGC	-0.151
ATTGCCAA	-0.0427
ATATGATC	0.214
AGAGCGGC	-0.012
GCCAAAGA	-0.156
GTGAAGCA	0.00894
GAATGCGC	0.0827
CGGTGTGA	0.0562
CCTGGGGA	-0.243
ATGACTAA	-0.0813
ACCGATGC	-0.0652
CAAGAGCG	0.0285
GTAGACAC	-0.0116

Sequence	PBM E-score
CAGGTAAA	0.179
CACACCGA	-0.0459
ACATAACT	0.117
GGTTGACA	0.0273
AGCTTCAG	-0.128
AAGAAAGG	0.0546
AGAAAATG	0.0493
GCTGAGCC	-0.0372
CATGCGAG	0.057
ATCGAAGC	-0.107
ACAGGGAT	0.295
ACCAACCA	0.0334
CGTCGTTC	0.185
CAGGGACC	0.4
CCATGGGA	0.0949
AGCCCCAT	-0.0124
CTTCCGTC	-0.0306
CCTGGGTA	-0.159
CATGAGAA	0.136
